Measurements from patent US20020107363A1.
Results are given in words; binding and its absence hold for the method and conditions named. Some results given as binding are weak or reduced against the parent protein; the word gives no strength.

Protein sequences, listed by entry. Tags and fused reporters are not part of them. Residues count along the entry.
UniProt Q9JHJ8, residues 47-269: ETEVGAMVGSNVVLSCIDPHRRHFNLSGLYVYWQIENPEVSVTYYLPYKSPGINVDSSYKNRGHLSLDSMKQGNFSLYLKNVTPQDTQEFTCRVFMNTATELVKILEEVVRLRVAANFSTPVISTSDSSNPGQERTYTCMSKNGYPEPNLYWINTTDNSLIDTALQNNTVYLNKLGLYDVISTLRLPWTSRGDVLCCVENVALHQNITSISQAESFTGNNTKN

Biological target: T1, mCRP1/ICOS expressed on CHO D-cells (clone 1.41) (murine) (UniProt Q9WVS0)
T1 sequence (looked up): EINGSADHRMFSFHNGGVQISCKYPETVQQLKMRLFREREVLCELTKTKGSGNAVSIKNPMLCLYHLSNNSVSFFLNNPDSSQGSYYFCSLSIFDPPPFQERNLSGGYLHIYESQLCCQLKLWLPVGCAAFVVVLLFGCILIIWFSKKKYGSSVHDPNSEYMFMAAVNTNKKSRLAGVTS
Experiment: FACS on mCRP1/ICOS-transfected CHO D-cells, anti-human IgG Fc-FITC detection

murine B7rp-1/Fc fusion protein (from UniProt Q9JHJ8 47-269)
binding: binds
